Test results: paper PMC10661826
Results are given in words; binding and its absence hold for the method and conditions named. In cells and extracts the contact can be indirect. Some binding calls cover weakened binding; strength is not graded here.

By UniProt entry, the sequences of proteins in these tests, tags left out.
UniProt P60953: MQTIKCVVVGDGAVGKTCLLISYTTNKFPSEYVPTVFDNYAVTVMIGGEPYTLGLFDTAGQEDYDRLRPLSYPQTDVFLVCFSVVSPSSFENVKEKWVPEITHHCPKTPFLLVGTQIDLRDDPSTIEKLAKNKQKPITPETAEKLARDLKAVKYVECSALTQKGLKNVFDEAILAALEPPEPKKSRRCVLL
UniProt Q13153: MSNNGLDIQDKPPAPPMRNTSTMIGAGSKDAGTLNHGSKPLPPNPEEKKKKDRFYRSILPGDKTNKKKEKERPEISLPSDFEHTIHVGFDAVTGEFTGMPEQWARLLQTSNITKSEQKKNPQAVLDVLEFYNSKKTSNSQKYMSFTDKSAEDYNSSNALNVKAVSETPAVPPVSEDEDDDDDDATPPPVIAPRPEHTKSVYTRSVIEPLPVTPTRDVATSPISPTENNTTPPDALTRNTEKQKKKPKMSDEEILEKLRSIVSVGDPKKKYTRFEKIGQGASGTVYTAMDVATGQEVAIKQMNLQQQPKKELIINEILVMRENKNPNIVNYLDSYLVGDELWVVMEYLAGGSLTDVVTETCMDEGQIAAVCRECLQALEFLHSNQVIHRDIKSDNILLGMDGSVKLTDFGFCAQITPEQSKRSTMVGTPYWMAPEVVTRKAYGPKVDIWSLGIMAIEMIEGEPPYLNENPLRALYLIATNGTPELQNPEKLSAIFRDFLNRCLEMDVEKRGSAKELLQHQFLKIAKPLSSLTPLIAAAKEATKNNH

Target: FLAG-CDC42 WT (cell division cycle 42) (human) (UniProt P60953)
Assay: co-IP; FLAG-CDC42 (WT or K16E) and HA-PAK1 co-expressed in HEK293T cells for 24 h; 500 ug lysate (Pierce IP lysis buffer with protease and phosphatase inhibitors) incubated with anti-FLAG magnetic agarose for 2 h at 4 °C; eluate blotted for PAK1

- binding: binds
Substance: p21-activated kinase (PAK)1, HA-PAK1 (from UniProt Q13153 1-545)
